{"source": "patent US4310660A", "about": "“Lincomycin compounds” (The Upjohn Company, priority 1980, dated 1982)", "key": {"[1]": {"system": "Staphylococcus aureus", "assay": "MIC vs. aerobic bacteria, microplate broth-dilution (BHI)", "assay_type": "cell-based"}, "[2]": {"system": "Klebsiella pneumoniae", "assay": "MIC vs. aerobic bacteria, microplate broth-dilution (BHI)", "assay_type": "cell-based", "details": "UC58, UC 58, read-out: Minimal Inhibitory Concentration (MIC)", "procedure": "(§1) The Minimal Inhibitory Concentration (MIC's) of both compounds Vs. aerobic bacteria is determined using a standard microplate broth-dilution method. Brain Heart Infusion (BHI-Difco) broth medium is used, and the plates are incubated at 37° C. for 20 hrs."}, "[3]": {"system": "Salmonella schottmuelleri", "assay": "MIC vs. aerobic bacteria, microplate broth-dilution (BHI)", "assay_type": "cell-based", "details": "UC126, read-out: Minimal Inhibitory Concentration (MIC), UC 126", "procedure": "as §1"}, "[4]": {"system": "Streptococcus pyogenes", "assay": "MIC vs. aerobic bacteria, microplate broth-dilution (BHI)", "assay_type": "cell-based", "details": "UC152, UC 152, read-out: Minimal Inhibitory Concentration (MIC)", "procedure": "as §1"}, "[5]": {"system": "Pseudomonas aeruginosa", "assay": "MIC vs. aerobic bacteria, microplate broth-dilution (BHI)", "assay_type": "cell-based", "details": "UC95, UC 95, read-out: Minimal Inhibitory Concentration (MIC)", "procedure": "as §1"}, "[6]": {"system": "Proteus vulgaris", "assay": "MIC vs. aerobic bacteria, microplate broth-dilution (BHI)", "assay_type": "cell-based", "details": "UC93, UC 93, read-out: Minimal Inhibitory Concentration (MIC)", "procedure": "as §1"}, "[7]": {"system": "Streptococcus viridans", "assay": "MIC vs. aerobic bacteria, microplate broth-dilution (BHI)", "assay_type": "cell-based", "procedure": "as §1"}, "[8]": {"system": "Diplococcus pneumoniae", "assay": "MIC vs. aerobic bacteria, microplate broth-dilution (BHI)", "assay_type": "cell-based", "details": "Streptococcus pneumoniae, read-out: Minimal Inhibitory Concentration (MIC)", "procedure": "as §1"}, "[9]": {"system": "Staphylococcus epidermidis", "assay": "MIC vs. aerobic bacteria, microplate broth-dilution (BHI)", "assay_type": "cell-based", "procedure": "as §1"}, "[10]": {"system": "Escherichia coli", "assay": "MIC vs. aerobic bacteria, microplate broth-dilution (BHI)", "assay_type": "cell-based", "details": "UC45, UC 45, read-out: Minimal Inhibitory Concentration (MIC)", "procedure": "as §1"}, "[11]": {"system": "S. aureus", "assay": "Mouse Protection Test", "assay_type": "in vivo", "details": "Staphylococcus aureus, 168 h, read-out: CD50 (median protective dose)", "description": "(§2) Immediately before use, the suspensions were thawed quickly and properly diluted. Infection was via the intrapertioneal route.\n(§3) Treatment of the infected groups was begun immediately and continued once per day for 4 days (first 24 hr period=1). Groups of untreated mice served as virulence controls for the culture.\n(§4) Seven days after the treatment regimen was begun the surviving animals were sacrificed and the median protective dose of the antibiotic calculated on the basis of mortality rates in the treatment groups. The median protective dose and its 95% confidence interval were calculated according to the method of Spearmen & Karber as programmed on a 360 digital computer."}, "[12]": {"system": "K. pneumoniae", "assay": "Mouse Protection Test", "assay_type": "in vivo", "details": "Klebsiella pneumoniae, 168 h; route not given; once per day for 4 days; read-out: CD50 (median protective dose)", "description": "as §2, §3, §4"}, "[13]": {"system": "S. hemolyticus", "assay": "Mouse Protection Test", "assay_type": "in vivo", "details": "once per day for 4 days, 95% confidence interval; for ED50: 168 h, read-out: CD50 (median protective dose)", "description": "as §2, §3, §4"}}, "note": "Where two headings read alike, the source gives them in different places.", "data": [{"compound": "CCC[C@@H]1C[C@@H](C(=O)N[C@@H]([C@H]2O[C@H](SC)[C@H](O)[C@@H](O)[C@H]2O)[C@H](C)Cl)N(C)C1", "note": "[Clindamycin, reference compound]", "values": [{"measurement": "MIC", "setting": "[1]; UC76, S. aureus UC 76, read-out: Minimal Inhibitory Concentration (MIC)", "result": 0.05, "unit": "µg/mL"}, {"measurement": "MIC", "setting": "[1]; UC570, S. aureus UC 570, read-out: Minimal Inhibitory Concentration (MIC)", "result": 0.2, "unit": "µg/mL"}, {"measurement": "MIC", "setting": "[1]; UC571, S. aureus UC 571, read-out: Minimal Inhibitory Concentration (MIC)", "result": 0.2, "unit": "µg/mL"}, {"measurement": "MIC", "setting": "[1]; UC746, S. aureus UC 746, read-out: Minimal Inhibitory Concentration (MIC)", "result": "< 0.05", "unit": "µg/mL"}, {"measurement": "MIC", "setting": "[1]; UC6675, S. aureus UC 6675, read-out: Minimal Inhibitory Concentration (MIC)", "result": 0.05, "unit": "µg/mL"}, {"measurement": "MIC", "setting": "[1]; UC6685, S. aureus UC 6685, read-out: Minimal Inhibitory Concentration (MIC)", "result": "> 25", "unit": "µg/mL"}, {"measurement": "MIC", "setting": "[1]; UC6686, S. aureus UC 6686, read-out: Minimal Inhibitory Concentration (MIC)", "result": 0.05, "unit": "µg/mL"}, {"measurement": "MIC", "setting": "[1]; UC6688, S. aureus UC 6688, read-out: Minimal Inhibitory Concentration (MIC)", "result": "> 25", "unit": "µg/mL"}, {"measurement": "MIC", "setting": "[1]; UC6689, S. aureus UC 6689, read-out: Minimal Inhibitory Concentration (MIC)", "result": 0.05, "unit": "µg/mL"}, {"measurement": "MIC", "setting": "[1]; UC6691, S. aureus UC 6691, read-out: Minimal Inhibitory Concentration (MIC)", "result": 0.1, "unit": "µg/mL"}, {"measurement": "MIC", "setting": "[1]; UC6692, S. aureus UC 6692, read-out: Minimal Inhibitory Concentration (MIC)", "result": "> 25", "unit": "µg/mL"}, {"measurement": "MIC", "setting": "[1]; UC6693, S. aureus UC 6693, read-out: Minimal Inhibitory Concentration (MIC)", "result": 0.05, "unit": "µg/mL"}, {"measurement": "MIC", "setting": "[1]; UC6694, S. aureus UC 6694, read-out: Minimal Inhibitory Concentration (MIC)", "result": "> 25", "unit": "µg/mL"}, {"measurement": "MIC", "setting": "[1]; UC6695, S. aureus UC 6695, read-out: Minimal Inhibitory Concentration (MIC)", "result": 0.1, "unit": "µg/mL"}, {"measurement": "MIC", "setting": "[1]; UC6696, S. aureus UC 6696, read-out: Minimal Inhibitory Concentration (MIC)", "result": 0.1, "unit": "µg/mL"}, {"measurement": "MIC", "setting": "[2]", "result": 6.25, "unit": "µg/mL"}, {"measurement": "MIC", "setting": "[3]", "result": "> 50", "unit": "µg/mL"}, {"measurement": "MIC", "setting": "[4]", "result": "≤ 0.012", "unit": "µg/mL"}, {"measurement": "MIC", "setting": "[5]", "result": "> 50", "unit": "µg/mL"}, {"measurement": "MIC", "setting": "[6]", "result": "> 50", "unit": "µg/mL"}, {"measurement": "MIC", "setting": "[7]; UC153, UC 153, read-out: Minimal Inhibitory Concentration (MIC)", "result": "≤ 0.012", "unit": "µg/mL"}, {"measurement": "MIC", "setting": "[7]; UC871, UC 871, read-out: Minimal Inhibitory Concentration (MIC)", "result": "≤ 0.012", "unit": "µg/mL"}, {"measurement": "MIC", "setting": "[8]; UC41, Diplococcus pneumoniae I, UC 41", "result": "≤ 0.012", "unit": "µg/mL"}, {"measurement": "MIC", "setting": "[8]; UC3213, Diplococcus pneumoniae II, UC 3213", "result": "≤ 0.012", "unit": "µg/mL"}, {"measurement": "MIC", "setting": "[9]; UC719, UC 719, read-out: Minimal Inhibitory Concentration (MIC)", "result": 0.1, "unit": "µg/mL"}, {"measurement": "MIC", "setting": "[9]; UC3389, UC 3389, read-out: Minimal Inhibitory Concentration (MIC)", "result": 0.1, "unit": "µg/mL"}, {"measurement": "MIC", "setting": "[10]", "result": 50, "unit": "µg/mL"}, {"measurement": "ED50", "setting": "[11]; oral, once per day for 4 days, 95% confidence interval", "result": 12.3, "unit": "mg/kg"}, {"measurement": "ED50", "setting": "[11]; sc", "result": 5.7, "unit": "mg/kg"}, {"measurement": "ED50", "setting": "[12]", "result": "> 320", "unit": "mg/kg"}, {"measurement": "ED50", "setting": "[13]; po, oral", "result": 12.3, "unit": "mg/kg"}, {"measurement": "ED50", "setting": "[13]; sc, subcut., two experiments listed", "result": 2.3, "unit": "mg/kg"}, {"measurement": "CD50 (median protective dose)", "setting": "[13]; subcut., two experiments listed, 10080 min", "result": "3.3(2.6-4.2) mg/kg"}]}]}
